Assay results taken from US10952999B2, “Inhibitor of cyclin-dependent kinase CDK9” (GENFLEET THERAPEUTICS (SHANGHAI) INC., priority 2017, dated 2021).

Columns and labels:
Assay in all cases: Cancer cell growth, Cell Titer-Glo cell viability assay, 72 hours
Type in all cases: cell-based
[1] = system: human non-small cell lung cancer cell H1975; settings: NCI-H1975, H1975, 72 hours
Source text: (§1) In the examples, we used acute myelocytic leukemia (AML) OCI-AML-3, acute promyelocytic leukemia cell line NB-4, MDS-RAEB (myelodysplastic syndrome-excess blasts type) cell line SKM-1, human leukemia cell Nomo-1, acute myeloid leukemia cell line MOLM14, acute myeloid leukemia cell line MOLM13, acute myeloid leukemia cell line MV4-11, acute myeloid leukemia cell line HL-60, acute myeloid leukemia cell line OCI-AML-2, histiocytic lymphoma U-937, acute B cell leukemia cell line MEC-1, acute B cell leukemia cell line MEC-2, acute megakaryoblastic leukemia CMK, hamster lung cell CHL, hamster ovary cell CHO, human non-small cell lung cancer cell H1975, human non-small cell lung cancer cell H358, human small cell lung cancer cell H209, human lung adenocarcinoma cell H1395, human non-small cell lung cancer cell PC-9, human lung cancer cell H3122, human non-small cell lung cancer cell H2122, human non-small cell lung cancer cell H1915, human lung adenocarcinoma cell H1355, human non-small cell lung cancer cell HCC827, human breast cancer cell MDA-MB-231, human breast cancer cell MDA-MB-468, human breast cancer cell MCF-7, human breast cancer cell T47D, human breast cancer cell SK-Br-3, the above cells were purchased from ATCC.
(§2) Cell Titer-Glo® (Promega, USA) chemical self-luminescence cell viability assay kit was used to detect the number of viable cells by quantitatively measuring ATP in living cells, according to which to calculate GI50 and IC50.

[2] = system: human non-small cell lung cancer cell HCC827; settings: HCC827, 72 hours
Source text: as §1, §2

[3] = system: human breast cancer cell MCF-7; settings: MCF7, MCF-7, 72 hours
Source text: as §1, §2

[4] = system: human small cell lung cancer cell H209; settings: NCI-H209, H209, 72 hours
Source text: as §1, §2

[5] = system: human breast cancer cell T47D
Source text: as §1, §2

[6] = system: human non-small cell lung cancer cell H358; settings: NCI-H358, H358, 72 hours
Source text: as §1, §2

[7] = system: human lung cancer cell H3122; settings: NCI-H3122, H3122, 72 hours
Source text: as §1, §2

[8] = system: human lung adenocarcinoma cell H1355; settings: NCI-H1355, H1355, 72 hours
Source text: as §1, §2

[9] = system: human breast cancer cell MDA-MB-231; settings: MDA-MB-231, 72 hours
Source text: as §1, §2

[10] = system: human non-small cell lung cancer cell H2122; settings: NCI-H2122, H2122, 72 hours
Source text: as §1, §2

[11] = system: human breast cancer cell SK-Br-3; settings: SK-Br-3, 72 hours
Source text: as §1, §2

[12] = system: human non-small cell lung cancer cell H1915; settings: NCI-H1915, H1915, 72 hours
Source text: as §1, §2

[13] = system: human breast cancer cell MDA-MB-468; settings: MDA-MB-468, 72 hours
Source text: as §1, §2

[14] = system: human non-small cell lung cancer cell PC-9; settings: PC-9, 72 hours
Source text: as §1, §2

[15] = system: human lung adenocarcinoma cell H1395; settings: NCI-H1395, H1395, 72 hours
Source text: as §1, §2

CCc1cnn2c(NCc3ccc[n+]([O-])c3)cc(N3CCCC[C@H]3CCO)nc12 [Dinaciclib, reference compound]
IC50 [1]: 29 nM | IC50 [2]: 28 nM | IC50 [3]: 8.2 nM | IC50 [4]: 77 nM | IC50 [5]: 54 nM | IC50 [6]: 43 nM | IC50 [7]: 11 nM | IC50 [8]: 25 nM | IC50 [9]: 63 nM | IC50 [10]: 39 nM | IC50 [11]: 15 nM | IC50 [12]: 23 nM | IC50 [13]: 13 nM | IC50 [14]: 13 nM | IC50 [15]: 56 nM
